Assay [1] addresses T1, beta-1,4-galactosyltransferase 1 (B4GALT1) fused with a NanoBiT fragment (human) (UniProt P15291).
T1 sequence: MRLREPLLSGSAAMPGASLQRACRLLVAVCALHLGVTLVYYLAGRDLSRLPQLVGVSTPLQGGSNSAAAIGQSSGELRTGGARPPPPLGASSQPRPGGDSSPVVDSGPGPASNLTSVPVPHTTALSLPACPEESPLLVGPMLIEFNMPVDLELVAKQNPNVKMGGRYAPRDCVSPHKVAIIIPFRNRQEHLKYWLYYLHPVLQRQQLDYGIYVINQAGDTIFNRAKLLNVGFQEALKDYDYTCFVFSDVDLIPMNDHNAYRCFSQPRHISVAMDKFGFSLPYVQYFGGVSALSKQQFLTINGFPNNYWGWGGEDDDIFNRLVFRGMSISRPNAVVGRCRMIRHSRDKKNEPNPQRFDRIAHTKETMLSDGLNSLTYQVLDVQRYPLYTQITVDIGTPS
Description: split reporter; NanoBiT in living HEK293T GALE KO cells (UDP-Gal almost absent); ratio to a HaloTag negative control, threshold 10-fold.

For assay [2], the target named is SLC35A2 (UDP-Gal transporter) fused with a NanoBiT fragment (human) (UniProt P78381). In words: split reporter; NanoBiT in living HEK293T cells, WT control and GALT KO; 25 ng of each plasmid per well, luminescence 20-24 h after transfection; ratio to a HaloTag negative control, threshold 10-fold.
The target in assay [3] is T1, beta-1,4-galactosyltransferase 1 (B4GALT1) fused with a NanoBiT fragment (human). Described as above.
For assay [4] the target is unchanged. Description: split reporter; NanoBiT in living HEK293T GALE&GALT KO cells (UDP-Gal below detection); ratio to a HaloTag negative control, threshold 10-fold.

These are yes or no findings as the source states them, for the method shown. In cells and extracts the contact can be indirect. Some entries that bind do so weakly or less than the wild type. Sequences can lack the tags named with a protein.

B1: SLC35A2 (UDP-Gal transporter) fused with a NanoBiT fragment (protein, UniProt P78381-1 1-396)
chain: MAAVGAGGSTAAPGPGAVSAGALEPGTASAAHRRLKYISLAVLVVQNASLILSIRYARTLPGDRFFATTAVVMAEVLKGLTCLLLLFAQKRGNVKHLVLFLHEAVLVQYVDTLKLAVPSLIYTLQNNLQYVAISNLPAATFQVTYQLKILTTALFSVLMLNRSLSRLQWASLLLLFTGVAIVQAQQAGGGGPRPLDQNPGAGLAAVVASCLSSGFAGVYFEKILKGSSGSVWLRNLQLGLFGTALGLVGLWWAEGTAVATRGFFFGYTPAVWGVVLNQAFGGLLVAVVVKYADNILKGFATSLSIVLSTVASIRLFGFHVDPLFALGAGLVIGAVYLYSLPRGAAKAIASASASASGPCVHQQPPGQPPPPQLSSHRGDLITEPFLPKLLTKVKGS
In the case of B1, the binding result is “no binding (condition: in GALE KO cells)” in assay [1], “binds” in assay [2], “binds” in assay [3] and “no binding (condition: in GALE&GALT KO cells)” in assay [4].

The record behind these values is PMC11994309.
